Experimental data: PubChem BioAssay AID1224828 (NIAID, 2016)

Screen: 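Find genes required for NF-kappaB p65 moving into the nucleus after LPS in mouse macrophages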 (primary screen)
Cells: mouse RAW264.7 G9 macrophage reporter cells (GFP-p65, Tnf promoter-mCherry)
Reagents: siRNA pool against mouse genes, 100 nM
Timing: 2 days siRNA transfection, then 40 min LPS before fixation
Conditions: LPS (Salmonella minnesota R595) at 10 ng/ml
Measured: 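Imaged p65 nuclear translocation ratio, normalised to the plate median, converted to robust z-scores and averaged across two replicates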
Scale: p65 translocation robust z-score: higher = more nuclear NF-kappaB p65 after LPS than the plate median; nuclear/cytoplasmic p65 ratio: higher = more nuclear NF-kappaB p65
Hit rule: 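Called active when z exceeds 3.3 or falls under -1.56 (median of Tlr4 controls), giving activity score of at least 50; no calls for control wells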
Calls: active = hit (p65 shift raised or lowered); inactive = no clear change
The whole screen tested about 17,000 reagents; this is an unselected part. Over the whole deposit, 762 (4.5%) got an active call. 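Active calls include both raised and lowered p65 entry, mostly lowered; wells with fewer than 50 cells lack a z-score.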 Raw values are not corrected between plates. Reagents against one gene are numbered here.

| target | reagent | p65 translocation robust z-score | nuclear/cytoplasmic p65 ratio, rep 1 | nuclear/cytoplasmic p65 ratio, rep 2 | low cell count flag | outcome |
| --- | --- | --- | --- | --- | --- | --- |
| Casd1 | 1 | -1.01 | 1.48 | 1.58 | enough cells to score | inactive |
| Zfp606 | 1 | – | 1.63 | 1.45 | fewer than 50 cells per well; well left out of scoring | inactive |
| Xkr5 | 1 | -1.63 | 1.13 | 1.27 | enough cells to score | active |
| Mtnr1a | 1 | -0.14 | 1.49 | 1.97 | enough cells to score | inactive |
| Dnajc16 | 1 | -1.97 | 1.05 | 1.05 | enough cells to score | active |
| Rabl3 | 1 | -0.03 | 1.38 | 1.21 | enough cells to score | inactive |
| Cort | 1 | -0.05 | 1.58 | 1.77 | enough cells to score | inactive |
| Tmem198 | 1 | -1.06 | 1.4 | 1.38 | enough cells to score | inactive |
| Zfp324 | 1 | -0.12 | 1.57 | 1.52 | enough cells to score | inactive |
| Myom1 | 1 | -0.05 | 1.73 | 1.62 | enough cells to score | inactive |
| S1pr4 | 1 | 0 | 1.48 | 1.61 | enough cells to score | inactive |
| Cga | 1 | 0.61 | 1.5 | 1.5 | enough cells to score | inactive |
| Upk3a | 1 | – | 1.11 | 1.01 | fewer than 50 cells per well; well left out of scoring | inactive |
| Pcdhb18 | 1 | -0.43 | 1.42 | 1.33 | enough cells to score | inactive |
| Kcnk10 | 1 | -0.02 | 1.35 | 1.42 | enough cells to score | inactive |
| 9430097D07Rik | 1 | -0.31 | 1.37 | 1.51 | enough cells to score | inactive |
| Fundc1 | 1 | 0.39 | 1.55 | 1.55 | enough cells to score | inactive |
| Nsdhl | 1 | -0.25 | 1.63 | 1.18 | enough cells to score | inactive |
| Cfap74 | 1 | – | 1 | 1.47 | fewer than 50 cells per well; well left out of scoring | inactive |
| Tet2 | 1 | 1.01 | 1.54 | 1.55 | enough cells to score | inactive |
| Prmt6 | 1 | -1.06 | 1.38 | 1.43 | enough cells to score | inactive |
| Rnf169 | 1 | 1.1 | 1.42 | 1.36 | enough cells to score | inactive |
| Col6a2 | 1 | -0.51 | 1.44 | 1.27 | enough cells to score | inactive |
| Celsr1 | 1 | – | 1.44 | 1.63 | fewer than 50 cells per well; well left out of scoring | inactive |
| Obscn | 1 | 1.8 | 1.92 | 1.66 | enough cells to score | inactive |
| Cyp2g1 | 1 | -0.84 | 1.44 | 1.66 | enough cells to score | inactive |
| Zc3h11a | 1 | – | 1.13 | 1.13 | fewer than 50 cells per well; well left out of scoring | inactive |
| Lzic | 1 | 0.23 | 1.87 | 1.48 | enough cells to score | inactive |
| Zyx | 1 | 1.65 | 1.79 | 1.81 | enough cells to score | inactive |
| Appl2 | 1 | 2.07 | 1.73 | 1.64 | enough cells to score | inactive |
| Afap1 | 1 | 0.42 | 1.46 | 1.38 | enough cells to score | inactive |
| Ntsr2 | 1 | 1.98 | 1.73 | 1.94 | enough cells to score | inactive |
| Degs2 | 1 | – | 1.65 | 1.75 | fewer than 50 cells per well; well left out of scoring | inactive |
| Prkar1a | 1 | – | 1.59 | 1.07 | fewer than 50 cells per well; well left out of scoring | inactive |
| Nfyc | 1 | 0.24 | 1.44 | 1.49 | enough cells to score | inactive |
| Csf2rb2 | 1 | -0.55 | 1.38 | 1.33 | enough cells to score | inactive |
| Cd59b | 1 | -1.42 | 1.05 | 1.2 | enough cells to score | inactive |
| Btbd9 | 1 | – | 1.12 | 1.25 | fewer than 50 cells per well; well left out of scoring | inactive |
| Tmem39b | 1 | -0.68 | 1.46 | 1.44 | enough cells to score | inactive |
| Atmin | 1 | -0.75 | 1.37 | 1.37 | enough cells to score | inactive |
| Ptms | 1 | -0.97 | 1.48 | 1.46 | enough cells to score | inactive |
| Atp6v0a2 | 1 | -1.54 | 1.32 | 1.35 | enough cells to score | inactive |
| Adcyap1 | 1 | 0.34 | 1.64 | 1.76 | enough cells to score | inactive |

Next part, starting with the last 6 of the part before.
| target | reagent | p65 translocation robust z-score | nuclear/cytoplasmic p65 ratio, rep 1 | nuclear/cytoplasmic p65 ratio, rep 2 | low cell count flag | outcome |
| --- | --- | --- | --- | --- | --- | --- |
| Btbd9 | 1 | – | 1.12 | 1.25 | fewer than 50 cells per well; well left out of scoring | inactive |
| Tmem39b | 1 | -0.68 | 1.46 | 1.44 | enough cells to score | inactive |
| Atmin | 1 | -0.75 | 1.37 | 1.37 | enough cells to score | inactive |
| Ptms | 1 | -0.97 | 1.48 | 1.46 | enough cells to score | inactive |
| Atp6v0a2 | 1 | -1.54 | 1.32 | 1.35 | enough cells to score | inactive |
| Adcyap1 | 1 | 0.34 | 1.64 | 1.76 | enough cells to score | inactive |
| Psmb11 | 1 | 1.11 | 1.57 | 1.54 | enough cells to score | inactive |
| Tmtc2 | 1 | – | 1.39 | 1.25 | fewer than 50 cells per well; well left out of scoring | inactive |
| Tmtc2 | 2 | – | 1.46 | 1.66 | fewer than 50 cells per well; well left out of scoring | inactive |
| 1700025G04Rik | 1 | -0.02 | 1.45 | 1.35 | enough cells to score | inactive |
| Tgif2lx1 | 1 | 1 | 1.71 | 1.62 | enough cells to score | inactive |
| Rhoh | 1 | -0.62 | 1.19 | 1.42 | enough cells to score | inactive |
| Speer2 | 1 | – | 1.37 | 1.17 | fewer than 50 cells per well; well left out of scoring | inactive |
| Adam30 | 1 | -0.12 | 1.58 | 1.62 | enough cells to score | inactive |
| Ccbe1 | 1 | – | 1.4 | 1.63 | fewer than 50 cells per well; well left out of scoring | inactive |
| Kif18b | 1 | – | 1.01 | 1.04 | fewer than 50 cells per well; well left out of scoring | inactive |
| Ctsll3 | 1 | -0.72 | 1.32 | 1.17 | enough cells to score | inactive |
| Sbk1 | 1 | -1.02 | 1.31 | 1.08 | enough cells to score | inactive |
| Sult1b1 | 1 | 0.26 | 1.51 | 1.67 | enough cells to score | inactive |
| Timmdc1 | 1 | – | 1.22 | 1.28 | fewer than 50 cells per well; well left out of scoring | inactive |
| Mcoln3 | 1 | -1.13 | 1.27 | 1.22 | enough cells to score | inactive |
| Fbxo4 | 1 | – | 1.27 | 1.09 | fewer than 50 cells per well; well left out of scoring | inactive |
| Fbxo4 | 2 | -0.04 | 1.44 | 1.38 | enough cells to score | inactive |
| Cyba | 1 | -0.1 | 1.44 | 1.38 | enough cells to score | inactive |
| F5 | 1 | 1.16 | 1.64 | 1.5 | enough cells to score | inactive |
| Pax9 | 1 | 0.06 | 1.42 | 1.45 | enough cells to score | inactive |
| Tmbim1 | 1 | – | 1.16 | 1.21 | fewer than 50 cells per well; well left out of scoring | inactive |
| Ddx19a | 1 | 0.67 | 1.68 | 1.63 | enough cells to score | inactive |
| Kif1c | 1 | – | 1.31 | 1.22 | fewer than 50 cells per well; well left out of scoring | inactive |
| Ptgis | 1 | -0.93 | 1.41 | 1.25 | enough cells to score | inactive |
| Rab11a | 1 | 1.11 | 1.7 | 1.64 | enough cells to score | inactive |
| Srsf9 | 1 | 0.13 | 1.47 | 1.23 | enough cells to score | inactive |
| Cenpc1 | 1 | -0.61 | 1.38 | 1.3 | enough cells to score | inactive |
| Tuba1a | 1 | -0.87 | 1.36 | 1.42 | enough cells to score | inactive |
| Tmem14c | 1 | -0.17 | 1.32 | 1.2 | enough cells to score | inactive |
| Krtap19-3 | 1 | 0.93 | 1.55 | 1.67 | enough cells to score | inactive |
| Ambp | 1 | -0.39 | 1.39 | 1.79 | enough cells to score | inactive |
| Fip1l1 | 1 | 1.64 | 1.86 | 1.66 | enough cells to score | inactive |
